The other results are listed elsewhere or left out.
Experiments:
Assay in all cases: log2 fold change, soluble protein after heating vs DMSO (PISA); higher = thermal stabilisation; K562 cells, 10 uM, 30 min; active = over 0.2 and 3.5 SD of the protein, either way, in both replicates (recomputed)
[1] = compound: C1=CC=C(C=C1)[C@H](COC2=CC3=C(C=C2)NC(=O)N3)NC(=O)C4=CC=CN(C4=O)CC5=CC(=C(C=C5)F)F
Summary of the method: (§1)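 K562 cells at 2×10^6 cells/mL were given 10 μM compound for 30 min. Aliquots then went through 3 min of heating across 48°C-58°C, were pooled, and were extracted in PBS with 0.5% NP-40 at 4°C, and the supernatant after 21,000xg for 90 min was quantified by TMTpro 16plex LC-MS/MS with channel sums equalised. Thermal stability relative to control samples, from duplicates, is given as log2 fold change.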

By UniProt entry, the sequences of proteins in these tests, tags left out. Where a name states a change or a piece, a line headed by the entry shows the natural chain unless it says otherwise.
UniProt Q16531, whole entry, looked up: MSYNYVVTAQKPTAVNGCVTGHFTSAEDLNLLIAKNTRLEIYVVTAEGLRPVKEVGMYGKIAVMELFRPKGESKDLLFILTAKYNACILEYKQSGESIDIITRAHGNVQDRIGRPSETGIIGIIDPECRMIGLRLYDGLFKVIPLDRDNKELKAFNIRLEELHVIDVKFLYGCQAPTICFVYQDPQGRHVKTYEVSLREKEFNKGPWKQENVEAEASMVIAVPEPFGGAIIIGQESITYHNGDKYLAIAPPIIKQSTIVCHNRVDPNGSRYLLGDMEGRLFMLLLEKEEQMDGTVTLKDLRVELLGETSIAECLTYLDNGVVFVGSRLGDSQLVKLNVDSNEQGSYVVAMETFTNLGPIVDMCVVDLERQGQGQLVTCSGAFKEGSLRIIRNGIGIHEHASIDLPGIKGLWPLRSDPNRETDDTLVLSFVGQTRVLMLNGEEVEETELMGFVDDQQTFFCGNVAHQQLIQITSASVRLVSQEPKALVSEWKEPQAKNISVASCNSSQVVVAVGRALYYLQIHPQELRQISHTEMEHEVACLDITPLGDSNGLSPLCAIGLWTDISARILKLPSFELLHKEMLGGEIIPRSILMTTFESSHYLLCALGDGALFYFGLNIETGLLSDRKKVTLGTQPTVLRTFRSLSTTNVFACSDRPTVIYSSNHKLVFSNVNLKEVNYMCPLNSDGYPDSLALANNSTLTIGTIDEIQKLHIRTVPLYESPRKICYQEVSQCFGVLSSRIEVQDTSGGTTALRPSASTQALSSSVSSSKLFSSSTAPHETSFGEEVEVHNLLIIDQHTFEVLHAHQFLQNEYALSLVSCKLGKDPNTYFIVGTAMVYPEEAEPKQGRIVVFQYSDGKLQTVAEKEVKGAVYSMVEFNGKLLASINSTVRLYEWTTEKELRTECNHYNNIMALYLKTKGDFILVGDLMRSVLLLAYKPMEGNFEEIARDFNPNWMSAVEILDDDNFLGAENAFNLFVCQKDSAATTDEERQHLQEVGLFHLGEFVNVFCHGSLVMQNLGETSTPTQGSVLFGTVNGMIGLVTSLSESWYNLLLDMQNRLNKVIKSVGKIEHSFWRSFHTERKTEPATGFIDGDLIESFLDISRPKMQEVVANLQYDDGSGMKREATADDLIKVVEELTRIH
UniProt Q9Y6V7: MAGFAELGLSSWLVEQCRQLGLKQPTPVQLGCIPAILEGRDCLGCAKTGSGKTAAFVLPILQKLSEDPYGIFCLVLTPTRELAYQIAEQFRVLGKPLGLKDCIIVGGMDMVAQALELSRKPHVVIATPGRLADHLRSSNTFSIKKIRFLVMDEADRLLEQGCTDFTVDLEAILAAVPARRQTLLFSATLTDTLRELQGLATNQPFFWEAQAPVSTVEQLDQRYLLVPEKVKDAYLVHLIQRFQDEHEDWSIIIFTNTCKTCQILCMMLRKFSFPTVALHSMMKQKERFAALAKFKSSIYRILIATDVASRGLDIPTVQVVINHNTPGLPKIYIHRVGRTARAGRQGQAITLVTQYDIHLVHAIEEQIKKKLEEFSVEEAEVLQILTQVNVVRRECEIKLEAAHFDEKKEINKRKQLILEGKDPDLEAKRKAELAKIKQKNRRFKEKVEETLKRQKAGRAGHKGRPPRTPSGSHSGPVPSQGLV
UniProt Q6UWP2: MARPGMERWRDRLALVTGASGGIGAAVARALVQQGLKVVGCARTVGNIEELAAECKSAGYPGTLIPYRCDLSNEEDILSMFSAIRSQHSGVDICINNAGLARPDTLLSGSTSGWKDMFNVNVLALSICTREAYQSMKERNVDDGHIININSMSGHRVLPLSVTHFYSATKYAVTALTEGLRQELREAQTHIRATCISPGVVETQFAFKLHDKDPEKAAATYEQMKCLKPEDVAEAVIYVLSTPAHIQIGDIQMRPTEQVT
UniProt P35659: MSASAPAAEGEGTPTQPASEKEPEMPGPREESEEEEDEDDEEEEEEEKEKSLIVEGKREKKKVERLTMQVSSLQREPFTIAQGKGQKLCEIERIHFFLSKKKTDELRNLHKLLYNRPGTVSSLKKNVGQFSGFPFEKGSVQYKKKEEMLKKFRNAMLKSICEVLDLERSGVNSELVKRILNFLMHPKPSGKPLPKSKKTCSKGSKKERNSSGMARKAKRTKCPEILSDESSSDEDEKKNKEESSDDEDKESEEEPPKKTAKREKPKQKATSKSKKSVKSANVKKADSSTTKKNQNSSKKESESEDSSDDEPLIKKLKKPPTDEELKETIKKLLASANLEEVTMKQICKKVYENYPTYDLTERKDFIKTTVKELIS
UniProt Q13838, whole entry, looked up: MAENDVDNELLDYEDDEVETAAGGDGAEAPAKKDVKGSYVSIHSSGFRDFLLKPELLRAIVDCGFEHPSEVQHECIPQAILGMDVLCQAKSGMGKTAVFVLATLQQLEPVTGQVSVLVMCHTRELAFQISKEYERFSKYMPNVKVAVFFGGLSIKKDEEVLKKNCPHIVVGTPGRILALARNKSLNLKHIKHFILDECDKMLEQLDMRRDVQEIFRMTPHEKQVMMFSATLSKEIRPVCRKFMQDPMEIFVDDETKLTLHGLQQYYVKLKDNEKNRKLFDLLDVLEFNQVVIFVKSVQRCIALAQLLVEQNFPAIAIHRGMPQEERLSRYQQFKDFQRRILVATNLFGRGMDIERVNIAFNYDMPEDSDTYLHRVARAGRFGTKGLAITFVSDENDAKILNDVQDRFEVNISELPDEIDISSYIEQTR
UniProt Q5VZ89: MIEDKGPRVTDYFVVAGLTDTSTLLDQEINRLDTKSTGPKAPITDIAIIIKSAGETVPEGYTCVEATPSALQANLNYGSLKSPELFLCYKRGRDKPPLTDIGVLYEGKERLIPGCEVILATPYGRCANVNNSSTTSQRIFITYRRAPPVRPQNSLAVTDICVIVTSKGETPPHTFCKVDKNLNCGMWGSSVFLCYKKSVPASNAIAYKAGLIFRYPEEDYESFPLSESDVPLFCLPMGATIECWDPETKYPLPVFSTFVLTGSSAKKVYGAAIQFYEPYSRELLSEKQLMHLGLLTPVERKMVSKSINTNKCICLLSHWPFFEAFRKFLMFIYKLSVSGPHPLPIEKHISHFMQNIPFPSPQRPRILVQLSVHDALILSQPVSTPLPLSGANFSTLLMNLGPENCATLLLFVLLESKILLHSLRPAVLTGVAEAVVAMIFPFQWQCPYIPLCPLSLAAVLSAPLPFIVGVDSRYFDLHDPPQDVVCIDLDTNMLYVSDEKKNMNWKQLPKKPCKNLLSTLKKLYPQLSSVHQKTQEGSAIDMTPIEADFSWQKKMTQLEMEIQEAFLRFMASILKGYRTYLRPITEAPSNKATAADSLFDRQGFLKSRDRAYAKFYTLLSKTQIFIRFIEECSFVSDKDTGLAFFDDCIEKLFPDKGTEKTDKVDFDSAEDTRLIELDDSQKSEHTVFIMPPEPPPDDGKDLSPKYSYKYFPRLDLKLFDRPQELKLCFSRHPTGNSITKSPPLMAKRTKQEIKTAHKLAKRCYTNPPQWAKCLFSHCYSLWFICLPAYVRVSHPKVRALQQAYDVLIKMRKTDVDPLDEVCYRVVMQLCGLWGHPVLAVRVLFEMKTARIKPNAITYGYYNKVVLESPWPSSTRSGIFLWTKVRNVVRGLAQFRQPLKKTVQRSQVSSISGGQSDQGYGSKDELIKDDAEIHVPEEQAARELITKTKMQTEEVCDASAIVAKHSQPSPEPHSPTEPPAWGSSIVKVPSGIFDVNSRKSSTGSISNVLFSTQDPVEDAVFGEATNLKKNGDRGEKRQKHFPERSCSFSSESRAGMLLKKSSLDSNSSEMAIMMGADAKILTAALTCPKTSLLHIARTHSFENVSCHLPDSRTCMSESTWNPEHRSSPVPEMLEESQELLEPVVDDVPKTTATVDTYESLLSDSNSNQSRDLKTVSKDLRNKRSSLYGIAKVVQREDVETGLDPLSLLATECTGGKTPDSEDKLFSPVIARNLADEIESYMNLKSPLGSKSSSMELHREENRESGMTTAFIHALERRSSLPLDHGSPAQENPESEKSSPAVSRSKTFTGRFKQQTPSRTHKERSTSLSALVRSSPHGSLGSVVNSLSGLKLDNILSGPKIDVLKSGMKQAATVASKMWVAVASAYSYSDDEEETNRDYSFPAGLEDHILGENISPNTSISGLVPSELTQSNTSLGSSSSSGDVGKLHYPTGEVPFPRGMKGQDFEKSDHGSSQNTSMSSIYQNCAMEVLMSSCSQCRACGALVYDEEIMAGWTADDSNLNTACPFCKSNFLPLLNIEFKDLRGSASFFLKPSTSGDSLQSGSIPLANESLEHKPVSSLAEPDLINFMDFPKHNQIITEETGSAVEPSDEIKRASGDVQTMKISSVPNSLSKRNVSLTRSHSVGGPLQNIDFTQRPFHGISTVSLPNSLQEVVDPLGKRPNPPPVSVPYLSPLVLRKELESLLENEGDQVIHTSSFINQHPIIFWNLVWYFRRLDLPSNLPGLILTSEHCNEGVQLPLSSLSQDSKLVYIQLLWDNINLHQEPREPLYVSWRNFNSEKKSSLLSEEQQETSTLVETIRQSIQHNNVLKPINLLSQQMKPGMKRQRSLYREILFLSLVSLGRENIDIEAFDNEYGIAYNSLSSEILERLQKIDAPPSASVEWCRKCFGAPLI
UniProt Q96HY6: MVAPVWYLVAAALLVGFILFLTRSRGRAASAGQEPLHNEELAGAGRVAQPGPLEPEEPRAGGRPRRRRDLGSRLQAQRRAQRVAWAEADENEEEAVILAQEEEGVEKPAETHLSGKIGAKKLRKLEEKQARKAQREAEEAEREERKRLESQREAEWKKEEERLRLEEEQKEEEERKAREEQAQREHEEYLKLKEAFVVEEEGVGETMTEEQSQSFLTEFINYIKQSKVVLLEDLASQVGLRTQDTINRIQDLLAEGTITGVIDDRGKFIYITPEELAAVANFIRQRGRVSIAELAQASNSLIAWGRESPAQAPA
UniProt Q7Z478: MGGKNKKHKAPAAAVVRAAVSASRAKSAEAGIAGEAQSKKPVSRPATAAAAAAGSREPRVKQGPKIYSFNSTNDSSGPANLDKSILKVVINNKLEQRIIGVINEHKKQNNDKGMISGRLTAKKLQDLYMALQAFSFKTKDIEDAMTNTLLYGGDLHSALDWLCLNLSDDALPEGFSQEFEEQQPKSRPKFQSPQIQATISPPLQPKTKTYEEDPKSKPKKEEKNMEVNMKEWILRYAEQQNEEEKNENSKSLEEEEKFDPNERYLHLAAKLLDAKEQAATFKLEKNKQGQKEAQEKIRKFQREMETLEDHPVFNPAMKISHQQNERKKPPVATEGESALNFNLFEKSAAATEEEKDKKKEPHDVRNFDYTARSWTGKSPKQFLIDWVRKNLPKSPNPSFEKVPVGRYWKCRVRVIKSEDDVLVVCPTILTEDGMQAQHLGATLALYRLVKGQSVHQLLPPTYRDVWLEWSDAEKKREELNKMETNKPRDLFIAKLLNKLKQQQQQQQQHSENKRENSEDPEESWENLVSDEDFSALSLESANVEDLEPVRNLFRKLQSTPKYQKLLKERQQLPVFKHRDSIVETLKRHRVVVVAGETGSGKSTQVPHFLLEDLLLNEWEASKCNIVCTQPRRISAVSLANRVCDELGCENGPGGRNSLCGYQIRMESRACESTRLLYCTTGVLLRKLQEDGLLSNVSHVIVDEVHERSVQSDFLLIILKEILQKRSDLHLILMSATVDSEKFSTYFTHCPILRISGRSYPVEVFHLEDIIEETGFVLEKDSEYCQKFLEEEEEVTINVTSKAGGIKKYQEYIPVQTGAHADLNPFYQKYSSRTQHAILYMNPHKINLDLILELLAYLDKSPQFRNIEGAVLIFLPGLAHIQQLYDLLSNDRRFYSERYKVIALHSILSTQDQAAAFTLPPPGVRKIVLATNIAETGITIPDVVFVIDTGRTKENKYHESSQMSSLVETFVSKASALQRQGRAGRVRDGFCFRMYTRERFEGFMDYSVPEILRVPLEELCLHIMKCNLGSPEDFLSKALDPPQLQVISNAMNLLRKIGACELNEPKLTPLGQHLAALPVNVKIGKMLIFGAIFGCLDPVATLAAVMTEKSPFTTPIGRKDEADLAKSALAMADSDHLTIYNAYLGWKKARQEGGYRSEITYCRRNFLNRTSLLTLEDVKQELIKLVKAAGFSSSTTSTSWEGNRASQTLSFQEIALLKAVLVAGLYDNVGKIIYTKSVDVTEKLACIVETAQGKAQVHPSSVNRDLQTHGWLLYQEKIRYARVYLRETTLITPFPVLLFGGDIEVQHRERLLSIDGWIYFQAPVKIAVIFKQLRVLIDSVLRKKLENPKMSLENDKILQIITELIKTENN
UniProt Q9UNQ2: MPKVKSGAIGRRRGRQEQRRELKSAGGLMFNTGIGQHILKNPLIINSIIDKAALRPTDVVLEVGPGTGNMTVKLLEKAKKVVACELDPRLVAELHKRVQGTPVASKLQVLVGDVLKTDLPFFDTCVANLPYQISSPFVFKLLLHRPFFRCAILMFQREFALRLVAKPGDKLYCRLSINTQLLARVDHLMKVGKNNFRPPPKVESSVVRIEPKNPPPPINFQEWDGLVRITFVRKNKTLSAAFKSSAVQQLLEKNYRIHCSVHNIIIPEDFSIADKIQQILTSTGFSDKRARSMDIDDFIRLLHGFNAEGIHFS

[2] = compound: CC1=C(SC2=C1C(=N[C@H](C3=NN=C(N32)C)CC(=O)N)C4=CC=C(C=C4)Cl)C
Summary of the method: as §1

[3] = compound: CC1=C2C(=CC=C1)N=C(N(C2=O)C3=CC=CC=C3C)CN4C=NC5=C(N=CN=C54)N
Summary of the method: as §1

[4] = compound: Cc1sc2c(c1C)C(c1ccc(Cl)cc1)=N[C@@H](CC(=O)OC(C)(C)C)c1nnc(C)n1-2
Summary of the method: as §1

[5] = compound: c1ccc([C@@H]2C[C@H]2NC2CCNCC2)cc1
Summary of the method: as §1

Measured: log2 fold change

DLST (UniProt P36957)
inactive: [1] 0.009 | [2] -0.067 | [3] -0.081 | [4] 0 | [5] 0.05

DFFA isoform 2 (UniProt O00273)
inactive: [1] 0.047

DECR1 (UniProt Q16698)
inactive: [1] -0.019 | [2] -0.003 | [3] 0.003 | [4] -0.023 | [5] -0.008

DDAH1 (UniProt O94760)
inactive: [1] -0.003 | [2] 0.127 | [3] 0.162 | [4] -0.161 | [5] 0.077

DDX41 (UniProt Q9UJV9)
inactive: [1] -0.004 | [2] -0.005 | [3] -0.106 | [4] -0.059 | [5] -0.004

DHRS2 (UniProt Q13268)
inactive: [1] 0.065 | [2] 0.038 | [3] 0.002 | [4] -0.033 | [5] -0.007

DDB1 isoform 2 (UniProt Q16531)
inactive: [1] 0.028

DDB2 (UniProt Q92466)
inactive: [1] 0.035 | [2] -0.045 | [3] 0.031 | [4] 0.033 | [5] -0.027

DDX49 (UniProt Q9Y6V7)
inactive: [1] 0.021 | [2] -0.056 | [3] -0.117 | [4] 0.056 | [5] 0.044

DCXR (UniProt Q7Z4W1)
inactive: [1] 0.032 | [2] -0.001 | [3] 0.059 | [4] 0.004 | [5] 0.05

DHRS11 (UniProt Q6UWP2)
inactive: [1] -0.029 | [2] 0.095 | [3] 0.043 | [4] -0.038 | [5] -0.037

DHDDS isoform 2 (UniProt Q86SQ9)
inactive: [1] 0 | [2] 0.018 | [3] 0.077 | [4] 0.061 | [5] 0.011

Retrieved one by one from the entries so far, three records:
DHDDS isoform 2 (UniProt Q86SQ9)
inactive: [1] 0 | [2] 0.018 | [3] 0.077 | [4] 0.061 | [5] 0.011

DDB1 isoform 2 (UniProt Q16531)
inactive: [1] 0.028

DHRS11 (UniProt Q6UWP2)
inactive: [1] -0.029 | [2] 0.095 | [3] 0.043 | [4] -0.038 | [5] -0.037

Continued:

DHX8 (UniProt Q14562)
inactive: [1] -0.032 | [2] 0.044 | [3] 0.09 | [4] 0.028 | [5] 0.037

DMXL2 isoform 3 (UniProt Q8TDJ6)
inactive: [1] 0.2 | [2] 0.072 | [3] 0.096 | [4] 0.143 | [5] 0.072

DDAH2 (UniProt O95865)
inactive: [1] 0.011 | [2] 0.117 | [3] 0.067 | [4] -0.091 | [5] -0.023

DLG3 (UniProt Q92796)
inactive: [1] -0.065 | [2] -0.06 | [3] -0.094 | [4] 0.03 | [5] -0.005

DLD (UniProt P09622)
inactive: [1] 0.016 | [2] 0.006 | [3] -0.005 | [4] -0.016 | [5] 0.044

DDT (UniProt P30046)
inactive: [1] -0.004 | [2] 0.2 | [3] 0.078 | [4] -0.126 | [5] 0.037

DIS3 (UniProt Q9Y2L1)
inactive: [1] -0.098 | [2] 0.1 | [3] 0.118 | [4] -0.011 | [5] -0.046

DEK (UniProt P35659)
inactive: [1] -0.025 | [2] 0.021 | [3] 0.067 | [4] -0.06 | [5] -0.008

DDX39B isoform 2 (UniProt Q13838)
inactive: [1] 0.009 | [2] -0.024 | [3] 0.008 | [4] 0.024 | [5] 0.007

DENND4C isoform 7 (UniProt Q5VZ89)
inactive: [1] -0.102 | [2] -0.04 | [3] 0.015 | [4] 0.013 | [5] 0.021

DHPS (UniProt M0R1T2)
inactive: [1] -0.155

DERL1 (UniProt Q9BUN8)
inactive: [1] 0.011 | [2] -0.034 | [3] 0.017 | [4] -0.011 | [5] 0.085

DERA (UniProt Q9Y315)
inactive: [1] 0.048 | [2] -0.013 | [3] 0.039 | [4] 0.016 | [5] 0.001

DDOST (UniProt P39656)
inactive: [1] 0.018 | [2] -0.009 | [3] -0.078 | [4] -0.022 | [5] 0

DHFR (UniProt P00374)
inactive: [1] -0.077 | [2] -0.014 | [3] 0.083 | [4] 0.058 | [5] 0.396

DHRS4 (UniProt Q9BTZ2)
inactive: [1] 0.017 | [2] 0.014 | [3] 0.039 | [4] 0.005 | [5] -0.008

DMTN (UniProt Q08495)
inactive: [1] -0.001 | [2] 0.035 | [3] -0.014 | [4] 0 | [5] -0.024

DMBT1 isoform 6 (UniProt Q9UGM3)
inactive: [1] -0.415

DDX21 (UniProt Q9NR30)
inactive: [1] -0.062 | [2] -0.222 | [3] -0.255 | [4] 0.027 | [5] 0.009

DDRGK1 (UniProt Q96HY6)
inactive: [1] 0.019 | [2] -0.008 | [3] 0.012 | [4] -0.018 | [5] 0.063

DGKZ (UniProt Q13574)
inactive: [1] -0.008 | [2] 0.029 | [3] -0.005 | [4] -0.027 | [5] 0.021

DDX5 (UniProt P17844)
inactive: [1] -0.061 | [2] 0.008 | [3] 0.067 | [4] -0.027 | [5] 0.038

DDB1 (UniProt Q16531)
inactive: [1] 0.023 | [2] -0.003 | [3] 0.01 | [4] 0 | [5] 0.016

DECR1 (UniProt E5RJD2)
inactive: [1] 0.079

DDHD1 (UniProt Q8NEL9)
inactive: [1] -0.011

DLAT (UniProt P10515)
inactive: [1] 0.124 | [2] -0.168 | [3] -0.098 | [4] -0.029 | [5] 0

DNAH10 (UniProt Q8IVF4)
inactive: [1] 0.09 | [2] 0.103 | [3] 0.062 | [4] -0.131 | [5] 0.031

DHX57 (UniProt Q6P158)
inactive: [1] -0.024 | [2] -0.098 | [3] -0.165 | [4] 0.025 | [5] -0.012

DNAAF5 (UniProt Q86Y56)
inactive: [1] -0.051 | [2] -0.148 | [3] -0.195 | [4] 0.071 | [5] -0.019

DDHD2 (UniProt O94830)
inactive: [1] -0.004 | [2] 0.025 | [3] 0.113 | [4] -0.041 | [5] -0.01

DDX4 (UniProt Q9NQI0)
inactive: [1] 0.052 | [2] -0.11 | [3] 0.213 | [4] 0.274 | [5] 0.001

DHX29 (UniProt Q7Z478)
inactive: [1] -0.012 | [2] -0.065 | [3] -0.048 | [4] 0.144 | [5] 0.037

DNAAF2 (UniProt Q9NVR5)
inactive: [1] 0.039 | [2] 0.02 | [3] -0.013 | [4] -0.003 | [5] 0.002

DIMT1 (UniProt Q9UNQ2)
inactive: [1] 0.045 | [2] -0.203 | [3] -0.222 | [4] 0.125 | [5] 0.005

Reprinted from the results shown (2 entries):
DDX4 (UniProt Q9NQI0)
inactive: [1] 0.052 | [2] -0.11 | [3] 0.213 | [4] 0.274 | [5] 0.001

DHX29 (UniProt Q7Z478)
inactive: [1] -0.012 | [2] -0.065 | [3] -0.048 | [4] 0.144 | [5] 0.037

Following part

DDX6 (UniProt P26196)
inactive: [1] -0.022 | [2] 0.009 | [3] 0.009 | [4] 0.038 | [5] -0.013

DDX3X (UniProt O00571)
inactive: [1] 0.119 | [2] -0.185 | [3] -0.122 | [4] 0.279 | [5] 0.03

DDX59 (UniProt Q5T1V6)
inactive: [1] 0.033 | [2] 0.006 | [3] 0.12 | [4] -0.059 | [5] 0.056

DHRS1 (UniProt Q96LJ7)
inactive: [1] 0.241 | [2] 0.015 | [3] 0.216 | [4] 0.321 | [5] 0.013

DMAC2 isoform 4 (UniProt Q9NW81)
inactive: [1] 0.03 | [2] 0.033 | [3] -0.002 | [4] -0.042 | [5] -0.038

DDX1 (UniProt Q92499)
inactive: [1] 0.012 | [2] -0.035 | [3] -0.026 | [4] 0.124 | [5] -0.044

DLG1 isoform 2 (UniProt Q12959)
inactive: [1] -0.086 | [2] 0.029 | [3] 0.056 | [4] 0.068 | [5] -0.021

DNAJA2 (UniProt O60884)
inactive: [1] -0.002 | [2] 0.004 | [3] 0.054 | [4] -0.022 | [5] -0.013

DNAH8 (UniProt Q96JB1)
inactive: [1] -0.001 | [2] -0.047 | [3] 0.164 | [4] -0.021 | [5] 0.009

DLGAP4 (UniProt Q9Y2H0)
inactive: [1] 0.002 | [2] 0.045 | [3] 0.057 | [4] -0.013 | [5] 0.026

DHX30 isoform 2 (UniProt Q7L2E3)
inactive: [1] 0.022 | [2] -0.238 | [3] -0.148 | [4] 0.125 | [5] 0.065

Reference: the supplement of paper PMC10849652
